Assay results reported in patent US20060234926.

By UniProt entry, the sequences of proteins in these tests, tags left out. Where a name states a change or a piece, a line headed by the entry shows the natural chain unless it says otherwise.
UniProt P05067: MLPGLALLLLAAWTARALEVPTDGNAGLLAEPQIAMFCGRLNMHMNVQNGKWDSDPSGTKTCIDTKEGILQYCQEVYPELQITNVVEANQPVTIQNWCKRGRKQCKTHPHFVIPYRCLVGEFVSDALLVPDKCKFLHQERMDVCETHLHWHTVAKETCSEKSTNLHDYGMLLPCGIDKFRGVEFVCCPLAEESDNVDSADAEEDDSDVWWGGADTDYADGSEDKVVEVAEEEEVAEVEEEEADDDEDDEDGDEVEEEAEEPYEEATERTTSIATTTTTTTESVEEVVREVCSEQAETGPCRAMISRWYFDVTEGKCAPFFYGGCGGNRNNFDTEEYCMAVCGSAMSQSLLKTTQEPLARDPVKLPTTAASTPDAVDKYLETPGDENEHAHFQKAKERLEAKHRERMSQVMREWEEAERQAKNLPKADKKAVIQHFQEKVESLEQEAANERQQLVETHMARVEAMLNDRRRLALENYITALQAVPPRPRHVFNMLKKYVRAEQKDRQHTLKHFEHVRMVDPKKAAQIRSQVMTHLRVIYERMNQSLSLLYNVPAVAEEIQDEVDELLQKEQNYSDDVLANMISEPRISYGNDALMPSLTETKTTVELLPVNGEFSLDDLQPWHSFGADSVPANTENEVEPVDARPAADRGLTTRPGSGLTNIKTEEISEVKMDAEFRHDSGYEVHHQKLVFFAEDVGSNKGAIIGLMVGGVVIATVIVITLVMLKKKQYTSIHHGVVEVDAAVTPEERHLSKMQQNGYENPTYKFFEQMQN

Molecular target: Amyloid beta 1-40, natural L-enantiomer (UniProt P05067)
Test: inhibition of the protein
Details: severely inhibits further fibril formation; peptide enantiomer in this assay not explicit; 50 mM MOPS pH 7.4, 50 mM NaCl, 1 mM MgCl2

## GGGAGACAAGACUAGACGCUCAAGGGGUGCUAAGCAUUUGGCAUCCGUUUUGUGAACUGCUCGAUGUUUAUUCUUCGACAUGAGACUCACAACAGUUCCCUUUAGUGAGGGUUAAUU [anti-Abeta T3 aptamer (T3.2)]
  functional effect of the aptamer: active
